# Assay results published in PubChem BioAssay AID493014 (National Center for Advancing Translational Sciences (NCATS), 2011).
# The list shows a part of the results. Further columns of the screen follow, without active or inactive calls. Most of these compounds were active or inconclusive in the main read-out, so they are no random draw. The note in brackets gives the kind of curve behind each potency; many fits are weak.
# Experiment: qHTS Assay to Find Inhibitors of Chronic Active B-Cell Receptor Signaling
# Settings: ABC-DLBCL IkBa-CBG/CBR reporter, luminescence ratio (green luciferase fused to IkBa over red control in TMD8 lymphoma cells), 4 h
# Outline: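 Concentration-response series (up to 46 uM) were applied to TMD8 dual-reporter cells for 4 h at 37C with doxycycline. Green/red ratio, after filter-overlap correction, defined %Activity; red signal alone was normalised to basal cells and zero luminescence.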
# [1] = measured here: CBR red luminescence, cell number
# [2] = measured here: IkBa-CBG green luminescence
Compound,AC50 [1],AC50 [2]
CCc1ccccc1NC(=O)CNC1CCCCC1,"20 µM [falling, partial curve, poor fit]",
Cn1c(=O)cc(OCCCC(=O)N2CCC3(CC2)OCCO3)c2ccccc21,"25.1 µM [rising, single point]",
CCN1CCc2c(sc(NC(=O)c3cc4ccccc4cc3OC)c2C(N)=O)C1,"14.1 µM [falling, single point]",
CCCCCn1c(=O)c2ccccc2n2c(CCl)nnc12,"20 µM [falling, partial curve, poor fit]",
CN(C)C(Cc1ccccc1)C(=O)c1ccccc1 (centres undefined),"1.64 µM [rising, full curve, poor fit]",
Cn1cc(Br)c(C(=O)Nc2ccc3c(C(F)(F)F)cc(=O)oc3c2)n1,"0.891 µM [falling, full curve, poor fit]",
O=c1[nH]c(=S)[nH]c(O)c1/C=C1/C=c2ccccc2=N1,"31.6 µM [rising, single point]","35.5 µM [falling, single point]"
CCC(=NCCc1ccccc1)c1c(O)n(C2CCCCC2)c(=O)[nH]c1=O,"13 µM [rising, partial curve, poor fit]",
COc1ccccc1OCCCn1cc(C(=O)C2CC2)c2ccccc21,"35.5 µM [falling, single point]",
COc1ccc(OC(=O)N(C)C)c(CN(C)C)c1,"4.11 µM [rising, partial curve, poor fit]","3.26 µM [falling, partial curve, poor fit]"
c1ccc(CN2CCc3nc4ccccc4cc3C2)cc1,"10 µM [rising, partial curve, poor fit]",
CCN(CC)CCCOC(=O)C(OC(C)C)(c1ccccc1)c1ccccc1,"7.31 µM [falling, partial curve]",
O=C(Nc1ccc(Cl)c(Cl)c1)O/N=C/c1ccncc1,"0.461 µM [rising, full curve, poor fit]",
CCOP1(=S)Oc2cc3c(cc2C(C(=O)OC)(C(F)(F)F)O1)OCO3 (centres undefined),"9.2 µM [falling, partial curve, poor fit]",
CC(=NCCCn1ccnc1)c1c(O)n(C2CCCCC2)c(=O)[nH]c1=O,"0.794 µM [rising, full curve, poor fit]",
CCOC(=O)c1c(N)n(Cc2ccc(OC)cc2)c2nc3ccccc3nc12,"22.4 µM [falling, single point]",
O=c1cc(-c2ccc(O)c(O)c2)oc2cc(O)cc(O)c12,"12.6 µM [falling, partial curve, poor fit]",
CCN(CC)C(=O)c1ccc(NC(=O)CNC(C)c2cccc3ccccc23)cc1 (centres undefined),"14.1 µM [falling, single point]",
Nc1ccccc1C(=O)OCCc1ccccc1,"9.2 µM [falling, partial curve, poor fit]",
Clc1ccc2c(c1)C(c1ccccc1Cl)=NCc1nnc(N3CCN(CCOc4ccccc4)CC3)n1-2,"23.1 µM [falling, single point]",

Compound,AC50 [1],AC50 [2]
CCCCCn1c(=O)c(C(=O)NC(C)c2ccccc2)c(O)c2ccccc21 (centres undefined),"2 µM [rising, full curve, poor fit]",
COc1ccc(CC(C)Nc2cccc(F)c2)cc1 (centres undefined),"3.16 µM [rising, full curve, poor fit]",
COc1c(C)cc(C(=O)C2CCCN(Cc3cnc(C)s3)C2)cc1C (centres undefined),"15.8 µM [rising, single point]",
CNC(=O)N(C)c1nnc(C(C)(C)C)s1,"7.31 µM [rising, partial curve, poor fit]",
O=C(O)C1C2CCC(O2)C1C(=O)Nc1ccc(Cl)cc1 (centres undefined),"31.6 µM [rising, single point]",
NC(=S)c1cn(C2OC(CO)C(O)C2O)c2ncnc(N)c12 (centres undefined),"1.58 µM [falling, full curve]","1 µM [rising, full curve, poor fit]"
CN1CCC2(O)OCCCC2C1 (centres undefined),"12.6 µM [falling, partial curve, poor fit]",
Cc1ccc(-c2cc(-c3ccccc3)cc(-c3ccccc3)[n+]2-c2ccccc2)cc1,"23.1 µM [falling, single point]","20.6 µM [rising, partial curve, poor fit]"
C[C@]12CCC3[C@@H](CCC4=CC(=O)CC[C@@]43C=O)C1CCC2=O (some centres undefined),"35.5 µM [rising, single point]",
CC(=O)c1c(O)n(C2CCCCCC2)c(=O)[nH]c1=O,"18.4 µM [rising, single point]",
COC1=C(C)C(=O)O[C@]12C(=O)C(C)=C1CCCCN3[C@H]([C@@H]4C[C@H](C)C(=O)O4)CC[C@]132,"5.8 µM [falling, full curve, poor fit]",
Cn1c(=O)oc2cc(S(=O)(=O)N3CCc4ccccc43)ccc21,"35.5 µM [falling, single point]",
O=C1Nc2cc(C(=O)N3CCC4(CC3)OCCO4)ccc2NC1CSCc1cccc(F)c1 (centres undefined),"25.1 µM [rising, single point]","35.5 µM [falling, single point]"
FC(F)(F)C1=NC(C(F)(F)F)=NP(N2CCOCC2)(N2CCOCC2)=N1,"3.26 µM [falling, partial curve, poor fit]",
COC(=O)C1=C(c2ccc(F)cc2OCc2ccccc2)C[C@@H]2CC[C@H]1N2C(=O)NCCc1ccc(F)cc1,"20.6 µM [falling, partial curve, poor fit]",
Cc1ccc2c(c1)=C/C(=C\c1c(O)[nH]c(=O)[nH]c1=O)C(=O)N=2,"1.3 µM [rising, full curve, poor fit]",
COc1ccccc1N1CCN(Cc2c(F)cccc2F)CC1,"20.6 µM [rising, single point]",
O=c1[nH]c(=O)n(-c2ccccc2Cl)c(O)c1C=NCCN1CCCCC1,"20.6 µM [rising, single point]",
CC(NCc1cccc(Cl)c1Cl)C(O)c1ccccc1 (centres undefined),"9.2 µM [rising, partial curve, poor fit]",

# Looked up above:
# For AC50 [1], `Cc1ccc2c(c1)=C/C(=C\c1c(O)[nH]c(=O)[nH]c1=O)C(=O)N=2` shows 1.3 µM [rising, full curve, poor fit]
# For AC50 [1], `Cn1c(=O)oc2cc(S(=O)(=O)N3CCc4ccccc43)ccc21` shows 35.5 µM [falling, single point]
